## Primary screen of a compound library

Sequences of proteins named here, by UniProt entry; tags and fusion partners are left off. Residues count along the entry.
UniProt I6X8D2, whole entry: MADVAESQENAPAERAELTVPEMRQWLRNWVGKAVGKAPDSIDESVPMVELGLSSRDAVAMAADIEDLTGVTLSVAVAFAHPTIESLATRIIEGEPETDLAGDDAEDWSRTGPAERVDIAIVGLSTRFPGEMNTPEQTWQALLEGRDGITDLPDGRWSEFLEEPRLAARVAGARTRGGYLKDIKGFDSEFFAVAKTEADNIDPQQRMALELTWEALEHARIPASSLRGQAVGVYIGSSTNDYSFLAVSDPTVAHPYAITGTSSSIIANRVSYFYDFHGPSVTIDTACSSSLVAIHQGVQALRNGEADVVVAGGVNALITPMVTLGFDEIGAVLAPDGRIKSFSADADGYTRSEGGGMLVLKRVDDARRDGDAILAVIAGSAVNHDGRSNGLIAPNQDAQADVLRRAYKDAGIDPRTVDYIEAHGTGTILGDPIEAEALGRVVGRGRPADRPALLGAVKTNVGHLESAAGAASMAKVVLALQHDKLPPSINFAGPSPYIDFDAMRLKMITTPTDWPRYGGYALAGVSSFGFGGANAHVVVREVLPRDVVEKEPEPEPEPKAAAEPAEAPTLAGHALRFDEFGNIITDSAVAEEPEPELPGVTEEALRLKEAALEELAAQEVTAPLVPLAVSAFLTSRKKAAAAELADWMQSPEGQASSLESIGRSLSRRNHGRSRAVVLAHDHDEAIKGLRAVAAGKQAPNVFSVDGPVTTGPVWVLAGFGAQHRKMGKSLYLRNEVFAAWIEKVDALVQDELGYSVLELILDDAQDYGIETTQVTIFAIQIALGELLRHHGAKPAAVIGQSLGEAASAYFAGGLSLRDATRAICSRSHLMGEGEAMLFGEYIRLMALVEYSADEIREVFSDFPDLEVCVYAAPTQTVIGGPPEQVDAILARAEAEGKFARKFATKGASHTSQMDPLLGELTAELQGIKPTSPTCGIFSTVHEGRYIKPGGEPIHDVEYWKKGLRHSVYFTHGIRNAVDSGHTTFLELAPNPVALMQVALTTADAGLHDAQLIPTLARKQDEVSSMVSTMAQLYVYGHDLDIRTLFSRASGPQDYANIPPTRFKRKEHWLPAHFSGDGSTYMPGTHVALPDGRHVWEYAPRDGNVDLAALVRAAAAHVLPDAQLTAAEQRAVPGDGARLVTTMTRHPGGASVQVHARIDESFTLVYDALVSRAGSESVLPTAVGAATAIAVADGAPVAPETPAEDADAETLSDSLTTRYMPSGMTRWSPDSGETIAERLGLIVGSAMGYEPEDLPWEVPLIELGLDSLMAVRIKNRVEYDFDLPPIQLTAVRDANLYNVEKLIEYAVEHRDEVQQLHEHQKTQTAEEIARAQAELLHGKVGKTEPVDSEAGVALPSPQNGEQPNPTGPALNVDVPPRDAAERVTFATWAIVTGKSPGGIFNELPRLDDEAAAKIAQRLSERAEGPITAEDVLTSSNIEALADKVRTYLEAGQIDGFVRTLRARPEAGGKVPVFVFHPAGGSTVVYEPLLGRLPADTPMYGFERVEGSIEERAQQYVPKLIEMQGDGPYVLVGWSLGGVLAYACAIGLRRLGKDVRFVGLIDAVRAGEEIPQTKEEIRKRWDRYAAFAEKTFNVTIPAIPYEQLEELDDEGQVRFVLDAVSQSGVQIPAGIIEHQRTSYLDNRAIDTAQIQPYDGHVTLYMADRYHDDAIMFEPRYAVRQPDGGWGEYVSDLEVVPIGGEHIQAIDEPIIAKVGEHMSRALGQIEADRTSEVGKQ
UniProt Q4DA54, 1-478: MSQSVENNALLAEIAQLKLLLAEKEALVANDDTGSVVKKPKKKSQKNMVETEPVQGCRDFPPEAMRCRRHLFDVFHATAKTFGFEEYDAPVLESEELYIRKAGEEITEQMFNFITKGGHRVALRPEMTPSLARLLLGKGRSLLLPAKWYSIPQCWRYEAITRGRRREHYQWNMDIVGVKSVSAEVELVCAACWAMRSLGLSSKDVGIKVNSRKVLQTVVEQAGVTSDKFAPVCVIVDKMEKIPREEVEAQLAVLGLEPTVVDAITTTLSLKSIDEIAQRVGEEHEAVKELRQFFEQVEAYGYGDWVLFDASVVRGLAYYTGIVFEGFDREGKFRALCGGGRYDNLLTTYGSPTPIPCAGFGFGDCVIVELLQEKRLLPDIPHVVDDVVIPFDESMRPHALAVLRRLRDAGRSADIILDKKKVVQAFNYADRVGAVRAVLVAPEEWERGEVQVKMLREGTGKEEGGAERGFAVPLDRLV
UniProt A4I591, 1-473: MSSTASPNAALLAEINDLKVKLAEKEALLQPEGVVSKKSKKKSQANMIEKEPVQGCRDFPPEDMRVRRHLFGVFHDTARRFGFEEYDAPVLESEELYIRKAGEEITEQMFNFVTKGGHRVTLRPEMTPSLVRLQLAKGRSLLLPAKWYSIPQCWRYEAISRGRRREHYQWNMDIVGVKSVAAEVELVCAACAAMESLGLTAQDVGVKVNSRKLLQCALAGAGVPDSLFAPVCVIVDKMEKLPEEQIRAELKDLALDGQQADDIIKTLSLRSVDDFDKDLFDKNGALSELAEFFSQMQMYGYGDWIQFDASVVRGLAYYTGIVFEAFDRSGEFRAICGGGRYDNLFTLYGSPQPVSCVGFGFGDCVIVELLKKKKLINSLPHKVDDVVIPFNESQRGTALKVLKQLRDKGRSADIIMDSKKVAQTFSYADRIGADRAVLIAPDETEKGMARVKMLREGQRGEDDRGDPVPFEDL

Source: ChEMBL document CHEMBL3988442, “University of Dundee, Small-Polar-MMV Screening Library” (2021).

Each number is a percent effect as filed. The controls that fix the scale are not given in the record; negative values are as filed. The compounds are a random part of those screened.

Pks13 thioesterase: 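Polyketide synthase Pks13, Mycobacterium tuberculosis (UniProt I6X8D2). Enzyme assay of the thioesterase domain of polyketide synthase 13; the read-out is not stated. Tested at 30 µM. The record gives no direction; the compounds picked for IC50 retests had high values, so higher reads as stronger inhibition. Size under these conditions: about 67,000 compounds, about 300 of them at 50% or above in at least one test.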
TcHisRS: 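Histidine-tRNA ligase, Trypanosoma cruzi CL Brener (UniProt Q4DA54). Enzyme assay of histidyl-tRNA synthetase; the read-out is not stated. Compounds at 30 µM. The record gives no direction; compounds that gave an IC50 in retests scored well above the rest, so higher reads as stronger inhibition. About 69,000 compounds were tested under these conditions; 0.045% (about 31) showed 50% or more at least once.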
LiHisRS: 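Enzyme assay of histidyl-tRNA synthetase; the read-out is not stated. Target: Histidine-tRNA ligase, Leishmania infantum (UniProt A4I591). Compounds at 30 µM. The record gives no direction; compounds that gave an IC50 in retests scored well above the rest, so higher reads as stronger inhibition. The assay is labelled LdHisRS but filed under L. infantum. Of about 69,000 compounds tested this way, about 410 (0.6%) reached 50% or more in at least one test.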

* Cc1nc(CN2CCCN(C(=O)c3cccnc3O)CC2)cs1 | Pks13 thioesterase: -19.19%; TcHisRS: 7.918%; LiHisRS: 17.59%
* Cn1cnc(S(=O)(=O)N2CC3(CCN(Cc4ccncc4)C3)C2)c1 | Pks13 thioesterase: -6.416%; TcHisRS: 8.543%; LiHisRS: 13.86%
* COc1c(C2CCCN2Cc2c(C)noc2C)c(C)nn1C (stereo unspecified) | Pks13 thioesterase: -7.742%; TcHisRS: -0.3774%; LiHisRS: -36.49%
* CN(C)C(CNS(=O)(=O)c1cnn(C)c1)c1cccc(F)c1 (stereo unspecified) | Pks13 thioesterase: -12.71%; TcHisRS: 11.11%; LiHisRS: 13.7%
* Cc1cccc(CN2C[C@@H]3COC[C@]3(CNC(=O)c3cccn3C)C2)n1 | Pks13 thioesterase: -22.55%; TcHisRS: 2.479%; LiHisRS: 12.73%
* CN(C)C(=O)[C@H]1C[C@@H]2CCN(Cc3ccoc3)C[C@@H]2O1 | Pks13 thioesterase: -7.025%; TcHisRS: 10.58%; LiHisRS: 15.45%
* CCO[C@H]1CO[C@@]2(CCCN(S(=O)(=O)c3ccccc3)C2)C1 | Pks13 thioesterase: -13.27%; TcHisRS: 1.639%; LiHisRS: 7.843%
* c1csc(CN2Cc3[nH]nc(COCC4CC4)c3C2)c1 | Pks13 thioesterase: -72.11%; TcHisRS: 12.9%; LiHisRS: 26.32%
* Cc1ccc(S(=O)(=O)NCC(C)C#N)cc1Br (stereo unspecified) | Pks13 thioesterase: 2.929%; TcHisRS: 5.82%; LiHisRS: 14.71%
* Cc1cc(C)c(CCNC(=O)CN2CCCN(C(N)=O)CC2)c(C)c1 | Pks13 thioesterase: -17.83%; TcHisRS: 6.383%; LiHisRS: -6.25%
* O=C(CN1CCN(CCO)CC1)NCCc1c(F)cccc1F | Pks13 thioesterase: -33.03%; TcHisRS: 2.128%; LiHisRS: 9.375%
* CCN(Cc1nccn1C)C1CCN(c2ccccc2)C1=O (stereo unspecified) | Pks13 thioesterase: -33.41%; TcHisRS: -0.5525%; LiHisRS: 9.326%
* CN(C)c1cccc(C2CCCN2Cc2nnnn2C2CC2)c1 (stereo unspecified) | Pks13 thioesterase: -2.153%; TcHisRS: -1.339%; LiHisRS: 13.58%
* Cc1cccc(C)c1OC1CN(Cc2cnc(N3CCOCC3)nc2)C1 | Pks13 thioesterase: -17.45%; TcHisRS: 5.844%; LiHisRS: 19.35%
* O=C(C1CN(CC2CCOCC2)CC12CCOCC2)N1CCOCC1 (stereo unspecified) | Pks13 thioesterase: -5.162%; TcHisRS: 9.195%; LiHisRS: 2%
* CCOCc1ccccc1NC(=O)NCC(c1cnn(C)c1)N(C)C (stereo unspecified) | TcHisRS: 7.563%; LiHisRS: 15.79%
* Cc1nn(C)cc1CN1CCC(C2Nc3ccccc3S(=O)(=O)N2)CC1 (stereo unspecified) | Pks13 thioesterase: -28.87%; TcHisRS: 2.703%; LiHisRS: 11.11%
* O=C(c1cscn1)N1CCCC12CCCN(S(=O)(=O)c1ccccc1)C2 (stereo unspecified) | Pks13 thioesterase: -39.27%; TcHisRS: 3.226%; LiHisRS: 13.27%
* Cc1ccc(S(=O)(=O)N2CCN(CCC#N)CC2)s1 | Pks13 thioesterase: -6.825%; TcHisRS: 10.1%; LiHisRS: 20.21%
* CCCc1nc(N2CC[C@@H](c3ccc4ccccc4c3)[C@H](O)C2)no1 | Pks13 thioesterase: 18.58%; TcHisRS: 4.386%; LiHisRS: 4.839%
* CCCNC(=O)NC(=O)CN1CCN(Cc2nccn2CC)CC1 | Pks13 thioesterase: -10.5%; TcHisRS: 0%; LiHisRS: 5.505%
* CC(O)CN1CCN(C(=O)c2cccn2Cc2cccnc2)CC1 (stereo unspecified) | Pks13 thioesterase: -10.88%; TcHisRS: 3.333%; LiHisRS: 0.9009%
* CC(NS(C)(=O)=O)c1nc(-c2ccc(Br)cc2)no1 (stereo unspecified) | Pks13 thioesterase: -6.367%; TcHisRS: 1.657%; LiHisRS: 2.083%
* Cc1cc(C[C@@H]2COC[C@@H]2NC(=O)Cn2c(=O)oc3ccccc32)on1 | Pks13 thioesterase: -7.756%; TcHisRS: 2.479%; LiHisRS: 13.46%
* CC1CCN(C(=O)c2cn(-c3cc(N4CCOCC4)ncn3)cn2)CC1 | Pks13 thioesterase: -30.91%; TcHisRS: 4.082%; LiHisRS: 13.22%
* NC(=O)CC1CCN(c2cncc(OCc3ccccc3)n2)CC1 | Pks13 thioesterase: 5.421%; TcHisRS: 12.06%; LiHisRS: 20%
* CC(C(=O)N1CCOCC1)N1CCN(Cc2nccn2C)CC1 (stereo unspecified) | Pks13 thioesterase: -18.16%; TcHisRS: 2.89%; LiHisRS: -20.54%
* Cc1nc(N)ncc1C(=O)N1CCCC1(C)C(=O)N(C)C (stereo unspecified) | Pks13 thioesterase: 8.19%; TcHisRS: 4.981%; LiHisRS: -4.286%
* NC(=O)C1(CCCc2ccncc2)CCCN1 (stereo unspecified) | Pks13 thioesterase: 0.3273%; TcHisRS: 2.128%; LiHisRS: 7.292%
* NC(=O)c1cccc(CCNC(=O)N2CCCC2)c1 | Pks13 thioesterase: -38.93%; TcHisRS: 3.784%; LiHisRS: -1.709%
* Cc1cnn(CC2CCCN2C(=O)CCc2c(C)noc2C)c1 (stereo unspecified) | TcHisRS: 1%; LiHisRS: 8.219%
* Cc1cccc(N2CC[C@@H]3[C@@H](CO[C@H]3CNC(=O)c3ccco3)C2)n1 | Pks13 thioesterase: 1.922%; TcHisRS: 8.046%; LiHisRS: 15.79%
* COc1c(CNC2CCN(C(C)(C)C)CC2)c(C(C)C)nn1C | Pks13 thioesterase: -15.74%; TcHisRS: -0.7576%; LiHisRS: 16.67%
* O=C(c1ccnnc1)N1CC[C@H]2C[C@H](c3ccncn3)O[C@@H]2C1 | Pks13 thioesterase: -6.913%; TcHisRS: 7.438%; LiHisRS: 12.73%
* CCn1cnnc1Cc1nc2c([nH]1)CC(c1ccc(Cl)cc1)CNC2=O (stereo unspecified) | Pks13 thioesterase: 19.15%; TcHisRS: 5.028%; LiHisRS: 13.16%

The last 3 entries again:

structure,Pks13 thioesterase,TcHisRS,LiHisRS
COc1c(CNC2CCN(C(C)(C)C)CC2)c(C(C)C)nn1C,-15.74,-0.7576,16.67
O=C(c1ccnnc1)N1CC[C@H]2C[C@H](c3ccncn3)O[C@@H]2C1,-6.913,7.438,12.73
CCn1cnnc1Cc1nc2c([nH]1)CC(c1ccc(Cl)cc1)CNC2=O (stereo unspecified),19.15,5.028,13.16